This is one part of the list.
Legend:
Assay in all cases: log2 fold change, soluble protein after heating vs DMSO (PISA); higher = thermal stabilisation; K562 lysate, 10 uM; active = over 0.2 and 3.5 SD of the protein, either way, in both replicates (recomputed)
erlotinib = compound: C#Cc1cccc(Nc2ncnc3cc(OCCOC)c(OCCOC)cc23)c1 [erlotinib]
Outline: (§1)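 Pellets of K562 cells were dounce-homogenised in PBS pH 7.4 with 1 mM MgCl2, and the crude extract was held at 1 mg/mL protein for a 30 min treatment with 10 μM compound. Aliquots were heated for 3 min over 48°C-58°C and pooled before NP-40 was added to 0.5% at 4°C. The supernatant from 21,000xg for 90 min was quantified by TMTpro 16plex LC-MS/MS with channel sums equalised. Values are reported from duplicates as log-two fold change in thermal stability relative to solvent controls.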

Amino acid sequences for entries named in this document (tags omitted). A change or cut given only in a name is not applied to a line headed by its entry.
UniProt O95292, whole entry, looked up: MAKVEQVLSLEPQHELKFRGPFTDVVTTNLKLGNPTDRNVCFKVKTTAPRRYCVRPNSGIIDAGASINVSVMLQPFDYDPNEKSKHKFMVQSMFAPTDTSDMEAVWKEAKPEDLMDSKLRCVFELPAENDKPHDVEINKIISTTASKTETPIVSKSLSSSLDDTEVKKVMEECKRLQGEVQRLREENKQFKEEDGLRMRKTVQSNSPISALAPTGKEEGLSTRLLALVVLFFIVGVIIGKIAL
UniProt Q69YN4: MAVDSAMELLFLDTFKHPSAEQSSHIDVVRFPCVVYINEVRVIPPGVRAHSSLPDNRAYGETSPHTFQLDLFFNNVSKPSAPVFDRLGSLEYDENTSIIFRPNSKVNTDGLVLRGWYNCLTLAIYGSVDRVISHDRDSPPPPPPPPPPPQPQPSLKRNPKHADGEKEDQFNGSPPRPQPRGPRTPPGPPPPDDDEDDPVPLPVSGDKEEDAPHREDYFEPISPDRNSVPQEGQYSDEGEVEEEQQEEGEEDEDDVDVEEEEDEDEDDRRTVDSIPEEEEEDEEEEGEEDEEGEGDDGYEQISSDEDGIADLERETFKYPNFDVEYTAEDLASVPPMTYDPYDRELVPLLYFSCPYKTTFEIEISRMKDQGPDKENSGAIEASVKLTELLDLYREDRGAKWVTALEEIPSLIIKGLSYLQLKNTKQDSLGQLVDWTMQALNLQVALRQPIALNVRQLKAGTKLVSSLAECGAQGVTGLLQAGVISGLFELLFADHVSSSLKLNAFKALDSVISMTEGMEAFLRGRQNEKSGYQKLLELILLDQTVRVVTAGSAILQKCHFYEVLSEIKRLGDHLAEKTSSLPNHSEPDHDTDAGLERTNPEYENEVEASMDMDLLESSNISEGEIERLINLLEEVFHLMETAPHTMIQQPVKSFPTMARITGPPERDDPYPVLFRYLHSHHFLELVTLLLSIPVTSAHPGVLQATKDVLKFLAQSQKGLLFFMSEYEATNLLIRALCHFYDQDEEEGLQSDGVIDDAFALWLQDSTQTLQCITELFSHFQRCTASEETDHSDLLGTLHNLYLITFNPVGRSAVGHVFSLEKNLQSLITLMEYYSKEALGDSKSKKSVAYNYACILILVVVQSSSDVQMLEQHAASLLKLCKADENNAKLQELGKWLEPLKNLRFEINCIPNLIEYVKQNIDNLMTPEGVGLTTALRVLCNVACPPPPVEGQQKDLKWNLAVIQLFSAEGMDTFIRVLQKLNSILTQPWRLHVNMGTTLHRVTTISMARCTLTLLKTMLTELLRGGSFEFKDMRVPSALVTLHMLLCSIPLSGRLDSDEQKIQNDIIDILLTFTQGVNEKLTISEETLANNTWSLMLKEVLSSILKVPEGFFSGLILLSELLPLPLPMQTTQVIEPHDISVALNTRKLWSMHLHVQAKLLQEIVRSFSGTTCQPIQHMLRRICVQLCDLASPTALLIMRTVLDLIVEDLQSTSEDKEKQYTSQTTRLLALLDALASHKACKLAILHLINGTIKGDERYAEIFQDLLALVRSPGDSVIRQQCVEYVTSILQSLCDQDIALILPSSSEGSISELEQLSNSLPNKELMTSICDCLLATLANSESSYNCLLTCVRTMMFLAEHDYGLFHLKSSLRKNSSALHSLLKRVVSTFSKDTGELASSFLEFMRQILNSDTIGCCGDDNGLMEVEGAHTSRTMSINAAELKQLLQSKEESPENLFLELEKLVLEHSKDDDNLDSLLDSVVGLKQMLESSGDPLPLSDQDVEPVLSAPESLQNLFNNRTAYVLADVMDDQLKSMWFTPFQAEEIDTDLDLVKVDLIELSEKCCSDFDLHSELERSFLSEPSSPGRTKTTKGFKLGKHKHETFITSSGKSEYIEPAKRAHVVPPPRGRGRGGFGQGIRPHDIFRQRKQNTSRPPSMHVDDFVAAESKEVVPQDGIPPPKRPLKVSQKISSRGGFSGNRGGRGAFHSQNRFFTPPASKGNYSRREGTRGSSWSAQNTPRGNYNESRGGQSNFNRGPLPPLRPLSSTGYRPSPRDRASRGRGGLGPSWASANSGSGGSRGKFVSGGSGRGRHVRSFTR
UniProt Q9BZM6: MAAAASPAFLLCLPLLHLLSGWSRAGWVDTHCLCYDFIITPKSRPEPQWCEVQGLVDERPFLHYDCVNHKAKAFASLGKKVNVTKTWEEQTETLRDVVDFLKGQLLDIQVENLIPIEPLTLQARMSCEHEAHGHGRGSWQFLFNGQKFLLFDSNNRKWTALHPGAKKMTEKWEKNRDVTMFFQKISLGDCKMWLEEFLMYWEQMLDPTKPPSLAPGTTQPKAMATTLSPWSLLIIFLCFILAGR
UniProt Q9Y5J1: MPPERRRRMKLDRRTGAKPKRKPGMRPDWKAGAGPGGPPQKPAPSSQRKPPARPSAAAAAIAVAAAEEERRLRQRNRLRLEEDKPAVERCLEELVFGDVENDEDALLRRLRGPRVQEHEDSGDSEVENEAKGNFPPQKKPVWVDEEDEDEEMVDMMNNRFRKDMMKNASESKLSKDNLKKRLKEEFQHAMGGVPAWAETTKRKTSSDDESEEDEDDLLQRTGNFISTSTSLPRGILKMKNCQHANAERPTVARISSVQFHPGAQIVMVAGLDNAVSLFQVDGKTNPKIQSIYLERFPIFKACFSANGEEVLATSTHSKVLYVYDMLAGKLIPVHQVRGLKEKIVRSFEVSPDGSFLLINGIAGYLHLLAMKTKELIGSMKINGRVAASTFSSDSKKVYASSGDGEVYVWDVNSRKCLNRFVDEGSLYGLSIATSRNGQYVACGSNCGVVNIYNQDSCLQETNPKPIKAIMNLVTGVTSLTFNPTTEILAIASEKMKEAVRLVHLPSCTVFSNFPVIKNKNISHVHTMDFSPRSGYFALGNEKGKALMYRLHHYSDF
UniProt Q9NQZ2: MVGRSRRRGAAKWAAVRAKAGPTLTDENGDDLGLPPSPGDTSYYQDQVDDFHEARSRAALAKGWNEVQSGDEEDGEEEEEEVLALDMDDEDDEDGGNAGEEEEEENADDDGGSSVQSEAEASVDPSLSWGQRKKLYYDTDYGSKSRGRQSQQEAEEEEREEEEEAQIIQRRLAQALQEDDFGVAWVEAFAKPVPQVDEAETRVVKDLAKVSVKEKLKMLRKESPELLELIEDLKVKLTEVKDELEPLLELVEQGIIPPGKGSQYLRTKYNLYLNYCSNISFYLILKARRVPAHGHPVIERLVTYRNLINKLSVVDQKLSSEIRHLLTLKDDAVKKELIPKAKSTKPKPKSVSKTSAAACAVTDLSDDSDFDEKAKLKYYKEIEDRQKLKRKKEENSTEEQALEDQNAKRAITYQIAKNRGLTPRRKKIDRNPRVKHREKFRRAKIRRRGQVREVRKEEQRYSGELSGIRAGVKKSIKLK
UniProt Q96RL1: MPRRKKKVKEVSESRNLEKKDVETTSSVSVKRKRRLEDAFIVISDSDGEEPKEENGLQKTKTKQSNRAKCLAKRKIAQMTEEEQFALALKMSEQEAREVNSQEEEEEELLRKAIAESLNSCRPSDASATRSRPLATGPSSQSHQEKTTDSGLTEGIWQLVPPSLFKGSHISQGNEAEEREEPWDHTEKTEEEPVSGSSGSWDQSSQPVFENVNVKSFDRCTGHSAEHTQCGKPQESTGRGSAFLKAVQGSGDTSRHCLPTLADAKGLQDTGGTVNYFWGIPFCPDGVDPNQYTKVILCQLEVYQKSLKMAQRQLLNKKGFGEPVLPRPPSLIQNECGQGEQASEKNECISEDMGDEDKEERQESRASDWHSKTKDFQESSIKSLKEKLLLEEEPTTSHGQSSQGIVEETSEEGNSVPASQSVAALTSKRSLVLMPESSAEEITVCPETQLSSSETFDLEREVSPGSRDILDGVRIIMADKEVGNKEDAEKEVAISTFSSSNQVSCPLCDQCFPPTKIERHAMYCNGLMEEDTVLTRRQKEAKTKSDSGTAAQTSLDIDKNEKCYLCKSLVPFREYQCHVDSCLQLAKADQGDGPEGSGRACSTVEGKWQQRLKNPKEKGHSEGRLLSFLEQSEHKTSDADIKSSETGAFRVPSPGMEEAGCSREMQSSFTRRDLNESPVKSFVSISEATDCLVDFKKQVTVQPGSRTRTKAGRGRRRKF
UniProt Q9BV40: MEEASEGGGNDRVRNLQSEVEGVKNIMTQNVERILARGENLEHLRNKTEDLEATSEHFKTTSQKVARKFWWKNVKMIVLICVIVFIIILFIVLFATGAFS
UniProt P06132: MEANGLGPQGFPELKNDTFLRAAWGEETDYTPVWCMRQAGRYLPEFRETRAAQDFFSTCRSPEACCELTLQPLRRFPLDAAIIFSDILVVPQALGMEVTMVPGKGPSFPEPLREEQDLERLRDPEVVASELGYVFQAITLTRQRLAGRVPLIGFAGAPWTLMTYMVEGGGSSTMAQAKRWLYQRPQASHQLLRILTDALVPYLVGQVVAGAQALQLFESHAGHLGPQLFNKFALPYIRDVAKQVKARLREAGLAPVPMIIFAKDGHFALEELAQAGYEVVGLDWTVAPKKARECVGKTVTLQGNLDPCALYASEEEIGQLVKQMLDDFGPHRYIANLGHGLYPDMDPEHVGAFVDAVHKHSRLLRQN
UniProt P61960, whole entry, looked up: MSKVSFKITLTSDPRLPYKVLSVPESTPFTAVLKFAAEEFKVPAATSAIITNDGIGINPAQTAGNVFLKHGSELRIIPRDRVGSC
UniProt Q9Y5T5, whole entry, looked up: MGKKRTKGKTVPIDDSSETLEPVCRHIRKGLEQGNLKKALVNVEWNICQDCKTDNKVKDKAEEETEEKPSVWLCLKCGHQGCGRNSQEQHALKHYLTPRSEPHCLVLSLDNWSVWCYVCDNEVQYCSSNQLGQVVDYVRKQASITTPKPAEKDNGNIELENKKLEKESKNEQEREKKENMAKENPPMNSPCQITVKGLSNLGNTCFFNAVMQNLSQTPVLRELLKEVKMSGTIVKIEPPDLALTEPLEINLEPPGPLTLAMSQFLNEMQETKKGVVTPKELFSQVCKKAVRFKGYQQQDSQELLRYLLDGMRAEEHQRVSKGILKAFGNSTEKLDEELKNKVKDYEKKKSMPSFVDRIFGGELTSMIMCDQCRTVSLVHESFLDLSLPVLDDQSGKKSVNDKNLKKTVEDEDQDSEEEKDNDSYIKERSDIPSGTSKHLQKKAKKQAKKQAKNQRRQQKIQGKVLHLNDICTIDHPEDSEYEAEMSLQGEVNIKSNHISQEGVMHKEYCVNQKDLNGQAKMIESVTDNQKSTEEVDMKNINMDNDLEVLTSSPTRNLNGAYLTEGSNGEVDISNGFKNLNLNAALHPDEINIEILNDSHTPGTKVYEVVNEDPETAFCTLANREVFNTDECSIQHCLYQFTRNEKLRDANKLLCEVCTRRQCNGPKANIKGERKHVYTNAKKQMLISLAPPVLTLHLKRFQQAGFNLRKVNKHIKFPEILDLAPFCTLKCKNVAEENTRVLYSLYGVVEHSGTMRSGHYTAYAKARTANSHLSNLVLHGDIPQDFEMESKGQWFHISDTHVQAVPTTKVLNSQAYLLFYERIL
UniProt Q13107: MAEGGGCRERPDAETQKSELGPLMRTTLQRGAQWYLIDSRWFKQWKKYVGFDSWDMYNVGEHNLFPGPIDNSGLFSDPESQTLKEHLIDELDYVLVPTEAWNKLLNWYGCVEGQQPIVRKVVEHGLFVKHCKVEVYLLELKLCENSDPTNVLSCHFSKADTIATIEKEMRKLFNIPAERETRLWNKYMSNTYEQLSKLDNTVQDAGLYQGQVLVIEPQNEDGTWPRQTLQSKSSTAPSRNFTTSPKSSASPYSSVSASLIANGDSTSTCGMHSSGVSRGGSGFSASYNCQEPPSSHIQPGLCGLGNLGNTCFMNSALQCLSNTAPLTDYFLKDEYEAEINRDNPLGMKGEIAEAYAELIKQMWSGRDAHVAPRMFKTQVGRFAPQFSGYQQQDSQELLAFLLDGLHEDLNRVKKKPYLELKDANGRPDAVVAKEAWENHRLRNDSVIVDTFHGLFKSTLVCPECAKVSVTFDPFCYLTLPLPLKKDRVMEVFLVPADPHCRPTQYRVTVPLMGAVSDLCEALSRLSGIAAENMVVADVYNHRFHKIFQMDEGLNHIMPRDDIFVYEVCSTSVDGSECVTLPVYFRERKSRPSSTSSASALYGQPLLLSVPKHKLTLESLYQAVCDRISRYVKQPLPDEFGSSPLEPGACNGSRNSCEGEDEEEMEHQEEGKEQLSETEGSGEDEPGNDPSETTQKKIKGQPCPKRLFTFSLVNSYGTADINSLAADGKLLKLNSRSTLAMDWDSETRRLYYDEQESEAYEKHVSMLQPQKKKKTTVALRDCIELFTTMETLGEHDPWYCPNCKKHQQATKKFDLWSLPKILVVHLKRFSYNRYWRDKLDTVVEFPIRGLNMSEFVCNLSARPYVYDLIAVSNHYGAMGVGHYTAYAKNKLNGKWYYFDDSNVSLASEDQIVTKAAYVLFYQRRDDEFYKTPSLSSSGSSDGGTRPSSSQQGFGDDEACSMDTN

[1] = compound: C/C(=N\NC(=O)C1=CC(=CC=C1)S(=O)(=O)N2CCOCC2)/C3=C(C=CC(=C3)Cl)O
Outline: as §1

[2] = compound: C1=CC(=CC=C1C2=NC3=C(N2)C=C(C=C3)C(=O)N)OC4=CC=C(C=C4)Cl
Outline: as §1

[3] = compound: C1=CC2=C(C=CC(=C2)/C=C\3/C(=O)NC(=NCC4=CC=CS4)S3)N=C1
Outline: as §1

[4] = compound: C1=CC2=NC=CN=C2C=C1/C=C/3\C(=O)NC(=O)S3
Outline: as §1

[5] = compound: C1=CC=C(C=C1)C2=NC(=C(N2)C3=CC=NC=C3)C4=CC(=C(C=C4)Cl)O
Outline: as §1

[6] = compound: C1=CC=C2C(=C1)C3=NNC4=CC=CC(=C43)C2=O
Outline: as §1

[7] = compound: C1CCN(C1)C(=O)NC2=CC=CC(=C2)NC3=NC=C(C(=N3)NCCC4=CN=CN4)Br
Outline: as §1

[8] = compound: C1CN(CCC1(CC2=CC=C(C=C2)Cl)N)C3=NC=NC4=C3C=CN4
Outline: as §1

IRAK-1-4 Inhibitor I = compound: C1COCCN1CCN2C3=CC=CC=C3N=C2NC(=O)C4=CC(=CC=C4)[N+](=O)[O-] [IRAK-1-4 Inhibitor I]
Outline: as §1

ibrutinib = compound: C=CC(=O)N1CCC[C@@H](n2nc(-c3ccc(Oc4ccccc4)cc3)c3c(N)ncnc32)C1 [ibrutinib]
Outline: as §1

[9] = compound: CC(=O)c1cnc2ccc(-c3cc(Cl)c(O)c(Cl)c3)nc2c1N[C@H]1CC[C@H](CN(C)C)CC1
Outline: as §1

ralimetinib = compound: CC(C)(C)Cn1c(N)nc2ccc(-c3[nH]c(C(C)(C)C)nc3-c3ccc(F)cc3)nc21 [ralimetinib]
Outline: as §1

[10] = compound: CC(C)(O)CC(=O)NCCn1ccc2ncnc(Nc3ccc(Oc4cccc(C(F)(F)F)c4)c(Cl)c3)c21
Outline: as §1

[11] = compound: CC(C)C1=C2N=C(C=C(N2N=C1)NCC3=CC=CC=C3)NCCCCCCN
Outline: as §1

[12] = compound: CC1=C(C(CC(=O)N1)C2=CC=C(C=C2)C(F)(F)F)C(=O)NC3=C(C=C4C(=C3)C=NN4)F
Outline: as §1

[13] = compound: CC1=C(C2=C(C=C1)C(=O)C3=CC=CC=C3N2CCCN)C
Outline: as §1

[14] = compound: CC1=C(C=C(C=C1)NC(=O)C2=CC(=CC=C2)C(C)(C)C#N)NC3=CC4=C(C=C3)N=CN(C4=O)C
Outline: as §1

[15] = compound: CC1=C(C=C(C=C1)NC(=O)C2=CC(=CC=C2)N(C)C)NC(=O)C3=CC=C(C=C3)O
Outline: as §1

[16] = compound: CC1=CC=C(C=C1)SC2=C3C=C(SC3=CN=C2)C(=O)N
Outline: as §1

Measured: log2 fold change

VAPB (UniProt O95292)
inactive: erlotinib 0.005 | [1] -0.017 | [2] 0.043 | [3] 0.01 | [4] -0.019 | [5] -0.031 | [6] -0.023 | [7] -0.033 | [8] -0.055 | IRAK-1-4 Inhibitor I -0.018 | ibrutinib -0.027 | [9] -0.043 | ralimetinib -0.003 | [10] 0.005 | [11] 0.007 | [12] -0.02 | [13] 0.019 | [14] -0.02 | [15] -0.004 | [16] -0.039

USP32 (UniProt Q8NFA0)
inactive: erlotinib -0.037 | [1] -0.088 | [2] 0.069 | [3] 0.037 | [4] 0.082 | [5] -0.015 | [6] -0.005 | [7] -0.006 | [8] 0.015 | IRAK-1-4 Inhibitor I 0.016 | ibrutinib -0.035 | [9] 0.014 | ralimetinib 0.005 | [10] -0.026 | [11] -0.041 | [12] -0.045 | [13] 0.017 | [14] 0.002 | [15] 0.052 | [16] 0.006

USP34 (UniProt Q70CQ2)
inactive: erlotinib 0.043 | [1] 0.018 | [2] -0.039 | [3] 0.029 | [4] -0.008 | [5] 0.012 | [6] -0.002 | [7] 0.003 | [8] 0.003 | IRAK-1-4 Inhibitor I -0.001 | ibrutinib 0.002 | [9] 0.006 | ralimetinib 0.011 | [10] -0.027 | [11] 0.001 | [12] -0.001 | [13] -0.032 | [14] 0.014 | [15] 0.026 | [16] 0

USP48 isoform 8 (UniProt Q86UV5)
inactive: erlotinib 0.001 | [1] -0.059 | [2] -0.011 | [3] -0.008 | [4] 0.005 | [5] 0.02 | [6] -0.02 | [7] 0 | [8] 0.018 | IRAK-1-4 Inhibitor I -0.014 | ibrutinib -0.02 | [9] -0.014 | ralimetinib 0.004 | [10] 0 | [11] -0.005 | [12] 0.007 | [13] -0.005 | [14] 0.001 | [15] 0 | [16] -0.01

VIRMA (UniProt Q69YN4)
inactive: erlotinib 0 | [1] 0.043 | [2] 0.002 | [3] 0.006 | [4] -0.075 | [5] -0.029 | [6] 0.017 | [7] -0.017 | [8] 0.058 | IRAK-1-4 Inhibitor I 0.008 | ibrutinib -0.034 | [9] 0.049 | ralimetinib 0.027 | [10] -0.039 | [11] 0.005 | [12] 0.029 | [13] 0.014 | [14] 0.069 | [15] 0.004 | [16] -0.011

ULBP1 (UniProt Q9BZM6)
inactive: erlotinib 0.036 | [1] 0.057 | [2] -0.008 | [3] 0.004 | [4] -0.007 | [5] 0.076 | [6] 0.027 | [7] -0.024 | [8] 0.035 | IRAK-1-4 Inhibitor I 0.023 | ibrutinib 0.031 | [9] 0.026 | ralimetinib -0.022 | [10] -0.047 | [11] 0.025 | [12] -0.021 | [13] -0.117 | [14] 0.064 | [15] 0.016 | [16] 0.001

UTP18 (UniProt Q9Y5J1)
inactive: erlotinib 0.055 | [1] 0.072 | [2] 0.051 | [3] -0.056 | [4] 0.129 | [5] 0.038 | [6] -0.068 | [7] -0.122 | [8] 0.107 | IRAK-1-4 Inhibitor I -0.031 | ibrutinib 0.125 | [9] -0.031 | ralimetinib 0.002 | [10] -0.017 | [11] 0.033 | [12] 0.057 | [13] -0.085 | [14] -0.017 | [15] 0.028 | [16] 0.023

UTP3 (UniProt Q9NQZ2)
inactive: erlotinib -0.051 | [1] -1.41 | [2] -0.088 | [3] -0.063 | [4] -0.039 | [5] -0.018 | [6] 0.021 | [7] -0.067 | [8] -0.09 | IRAK-1-4 Inhibitor I -0.041 | ibrutinib 0.053 | [9] 0.001 | ralimetinib 0.055 | [10] -0.051 | [11] -0.058 | [12] 0.026 | [13] -0.123 | [14] -0.016 | [15] -0.023 | [16] -0.018

UIMC1 (UniProt Q96RL1)
inactive: erlotinib -0.013 | [1] 0 | [2] 0.024 | [3] -0.066 | [4] -0.084 | [5] 0.038 | [6] -0.053 | [7] -0.011 | [8] 0.019 | IRAK-1-4 Inhibitor I 0.046 | ibrutinib 0.015 | [9] -0.012 | ralimetinib 0.025 | [10] 0.033 | [11] 0.011 | [12] 0.023 | [13] -0.038 | [14] -0.007 | [15] 0.038 | [16] -0.011

Taken from the listing (2 entries):
ULBP1 (UniProt Q9BZM6)
inactive: erlotinib 0.036 | [1] 0.057 | [2] -0.008 | [3] 0.004 | [4] -0.007 | [5] 0.076 | [6] 0.027 | [7] -0.024 | [8] 0.035 | IRAK-1-4 Inhibitor I 0.023 | ibrutinib 0.031 | [9] 0.026 | ralimetinib -0.022 | [10] -0.047 | [11] 0.025 | [12] -0.021 | [13] -0.117 | [14] 0.064 | [15] 0.016 | [16] 0.001

UTP18 (UniProt Q9Y5J1)
inactive: erlotinib 0.055 | [1] 0.072 | [2] 0.051 | [3] -0.056 | [4] 0.129 | [5] 0.038 | [6] -0.068 | [7] -0.122 | [8] 0.107 | IRAK-1-4 Inhibitor I -0.031 | ibrutinib 0.125 | [9] -0.031 | ralimetinib 0.002 | [10] -0.017 | [11] 0.033 | [12] 0.057 | [13] -0.085 | [14] -0.017 | [15] 0.028 | [16] 0.023

(listing goes on)

VARS (UniProt P26640)
inactive: erlotinib 0.031 | [1] 0.035 | [2] -0.031 | [3] 0.007 | [4] 0.03 | [5] 0.019 | [6] -0.035 | [7] 0.021 | [8] -0.002 | IRAK-1-4 Inhibitor I 0.011 | ibrutinib 0.015 | [9] -0.003 | ralimetinib 0.042 | [10] 0.018 | [11] 0.032 | [12] 0.006 | [13] -0.047 | [14] 0.001 | [15] 0.041 | [16] 0.035

VAMP8 (UniProt Q9BV40)
inactive: erlotinib -0.008 | [1] 0.023 | [2] 0.025 | [3] 0.02 | [4] -0.037 | [5] 0.013 | [6] -0.017 | [7] -0.02 | [8] 0.038 | IRAK-1-4 Inhibitor I -0.006 | ibrutinib 0.067 | [9] -0.035 | ralimetinib -0.004 | [10] -0.053 | [11] -0.012 | [12] -0.016 | [13] -0.035 | [14] 0.016 | [15] -0.011 | [16] 0.003

USP7 (UniProt Q93009)
inactive: erlotinib 0.004 | [1] 0.001 | [2] -0.005 | [3] -0.005 | [4] -0.013 | [5] -0.017 | [6] -0.031 | [7] -0.002 | [8] -0.019 | IRAK-1-4 Inhibitor I -0.016 | ibrutinib -0.007 | [9] -0.005 | ralimetinib 0.029 | [10] 0.006 | [11] -0.005 | [12] -0.005 | [13] 0.009 | [14] 0 | [15] 0.016 | [16] 0.001

UROD (UniProt P06132)
inactive: erlotinib -0.021 | [1] -0.094 | [2] -0.019 | [3] -0.013 | [4] 0.009 | [5] -0.01 | [6] 0.008 | [7] 0.017 | [8] 0.02 | IRAK-1-4 Inhibitor I -0.008 | ibrutinib 0.028 | [9] 0 | ralimetinib 0.023 | [10] 0.016 | [11] -0.034 | [12] -0.037 | [13] 0.011 | [14] 0.02 | [15] -0.022 | [16] -0.024

UFM1 (UniProt P61960)
inactive: erlotinib 0.035 | [1] 0.078 | [2] -0.003 | [3] 0.085 | [4] 0.029 | [5] -0.013 | [6] 0.123 | [7] 0.066 | [8] 0.013 | IRAK-1-4 Inhibitor I -0.009 | ibrutinib 0.059 | [9] 0.072 | ralimetinib 0.008 | [10] -0.014 | [11] -0.003 | [12] -0.04 | [13] -0.007 | [14] -0.097 | [15] -0.038 | [16] 0.109

USP16 (UniProt Q9Y5T5)
inactive: erlotinib -0.002 | [1] -0.01 | [2] -0.01 | [3] -0.002 | [4] 0.011 | [5] 0.036 | [6] -0.016 | [7] -0.028 | [8] -0.005 | IRAK-1-4 Inhibitor I -0.033 | ibrutinib -0.027 | [9] -0.035 | ralimetinib -0.001 | [10] 0.011 | [11] 0.017 | [12] 0 | [13] -0.06 | [14] -0.027 | [15] -0.012 | [16] 0.019

USP4 (UniProt Q13107)
inactive: erlotinib 0.057 | [1] -0.079 | [2] -0.002 | [3] -0.006 | [4] -0.055 | [5] -0.022 | [6] -0.093 | [7] -0.067 | [8] -0.019 | IRAK-1-4 Inhibitor I 0.001 | ibrutinib 0.012 | [9] 0.023 | ralimetinib 0.018 | [10] 0.028 | [11] -0.043 | [12] 0.019 | [13] 0.006 | [14] 0.007 | [15] 0.029 | [16] 0
